{"source": "PubChem BioAssay AID686943 (Drosophila RNAi Screening Center, 2013)", "screen": "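Knockdowns that increase or decrease active ERK after insulin receptor stimulation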 (primary screen)", "cell system": "Drosophila S2R+ haemocyte-like cells expressing YFP-tagged ERK (Rolled)", "reagent": "long dsRNA against Drosophila genes", "conditions": "insulin stimulation versus unstimulated cells; dose and duration not given", "measured": "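Per-plate z-scores of phospho-ERK immunostaining normalised to YFP-tagged ERK, measured with and without insulin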", "scale": "replicate 1, z-score of dpERK with insulin and replicate 2, z-score of dpERK with insulin: higher = more active ERK per ERK-YFP after insulin", "note": "The screen tested about 23,000 reagents; below is an unselected part of those that have a named target and a result. 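Extra replicates exist only for a retested subset of genes; insulin dose and duration not given; both raised and lowered dpERK matter.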 Names joined by + are all predicted targets of the reagent. Further read-outs or replicates are left out here. Reagent sequences are not shown. The record does not give: the amount of reagent, the time to read-out."}
{"target gene": "Strip", "dsRNA": "DRSC08194", "replicate 1, z-score of dpERK with insulin": 0.73, "replicate 2, z-score of dpERK with insulin": 0.16}
{"target gene": "dl", "dsRNA": "DRSC03520", "replicate 1, z-score of dpERK with insulin": -0.36, "replicate 2, z-score of dpERK with insulin": 0.4}
{"target gene": "dl", "dsRNA": "DRSC03521", "replicate 1, z-score of dpERK with insulin": -0.62, "replicate 2, z-score of dpERK with insulin": 0.6}
{"target gene": "Ugalt", "dsRNA": "DRSC18467", "replicate 1, z-score of dpERK with insulin": -0.08, "replicate 2, z-score of dpERK with insulin": 0.76}
{"target gene": "CG14301", "dsRNA": "DRSC14780", "replicate 1, z-score of dpERK with insulin": -0.5, "replicate 2, z-score of dpERK with insulin": -0.42}
{"target gene": "Ssb-c31a", "dsRNA": "DRSC03443", "replicate 1, z-score of dpERK with insulin": -0.11, "replicate 2, z-score of dpERK with insulin": 0.53}
{"target gene": "acj6", "dsRNA": "DRSC20304", "replicate 1, z-score of dpERK with insulin": 0.43, "replicate 2, z-score of dpERK with insulin": 0.57}
{"target gene": "CG7512", "dsRNA": "DRSC10863", "replicate 1, z-score of dpERK with insulin": -1.57, "replicate 2, z-score of dpERK with insulin": -0.57}
{"target gene": "Gr64d + Gr64e", "dsRNA": "DRSC08446", "replicate 1, z-score of dpERK with insulin": 1.37, "replicate 2, z-score of dpERK with insulin": 0.77}
{"target gene": "CG2811", "dsRNA": "DRSC04318", "replicate 1, z-score of dpERK with insulin": -0.05, "replicate 2, z-score of dpERK with insulin": -1.19}
{"target gene": "CG34039", "dsRNA": "DRSC09318", "replicate 1, z-score of dpERK with insulin": 0.2, "replicate 2, z-score of dpERK with insulin": 0.71}
{"target gene": "ATPsynO", "dsRNA": "DRSC16780", "replicate 1, z-score of dpERK with insulin": 0.62, "replicate 2, z-score of dpERK with insulin": -1}
{"target gene": "Tmep", "dsRNA": "DRSC08215", "replicate 1, z-score of dpERK with insulin": 0.48, "replicate 2, z-score of dpERK with insulin": 0.59}
{"target gene": "Alg-2", "dsRNA": "DRSC07799", "replicate 1, z-score of dpERK with insulin": -0.23, "replicate 2, z-score of dpERK with insulin": -0.56}
{"target gene": "mus304", "dsRNA": "DRSC11372", "replicate 1, z-score of dpERK with insulin": -0.81, "replicate 2, z-score of dpERK with insulin": -0.03}
{"target gene": "CG9752", "dsRNA": "DRSC04562", "replicate 1, z-score of dpERK with insulin": 0.42, "replicate 2, z-score of dpERK with insulin": -0.08}
{"target gene": "CG12104", "dsRNA": "DRSC08254", "replicate 1, z-score of dpERK with insulin": 0.37, "replicate 2, z-score of dpERK with insulin": 0.3}
{"target gene": "NijB", "dsRNA": "DRSC09850", "replicate 1, z-score of dpERK with insulin": 0.26, "replicate 2, z-score of dpERK with insulin": -0.81}

Sorted by “replicate 2, z-score of dpERK with insulin” (high to low): some entries from above.
{"target gene": "CG34039", "dsRNA": "DRSC09318", "replicate 1, z-score of dpERK with insulin": 0.2, "replicate 2, z-score of dpERK with insulin": 0.71}
{"target gene": "Tmep", "dsRNA": "DRSC08215", "replicate 1, z-score of dpERK with insulin": 0.48, "replicate 2, z-score of dpERK with insulin": 0.59}
{"target gene": "mus304", "dsRNA": "DRSC11372", "replicate 1, z-score of dpERK with insulin": -0.81, "replicate 2, z-score of dpERK with insulin": -0.03}
{"target gene": "CG9752", "dsRNA": "DRSC04562", "replicate 1, z-score of dpERK with insulin": 0.42, "replicate 2, z-score of dpERK with insulin": -0.08}
{"target gene": "Alg-2", "dsRNA": "DRSC07799", "replicate 1, z-score of dpERK with insulin": -0.23, "replicate 2, z-score of dpERK with insulin": -0.56}
{"target gene": "ATPsynO", "dsRNA": "DRSC16780", "replicate 1, z-score of dpERK with insulin": 0.62, "replicate 2, z-score of dpERK with insulin": -1}

The listing continues.
{"target gene": "CG1690", "dsRNA": "DRSC06636", "replicate 1, z-score of dpERK with insulin": 0.92, "replicate 2, z-score of dpERK with insulin": 1.9}
{"target gene": "CG31663", "dsRNA": "DRSC00078", "replicate 1, z-score of dpERK with insulin": 0.5, "replicate 2, z-score of dpERK with insulin": 0.85}
{"target gene": "CG31663", "dsRNA": "DRSC00389", "replicate 1, z-score of dpERK with insulin": 0.19, "replicate 2, z-score of dpERK with insulin": 0.13}
{"target gene": "CG31663", "dsRNA": "DRSC00390", "replicate 1, z-score of dpERK with insulin": 0.46, "replicate 2, z-score of dpERK with insulin": 1.31}
{"target gene": "CG31663", "dsRNA": "DRSC00393", "replicate 1, z-score of dpERK with insulin": -0.39, "replicate 2, z-score of dpERK with insulin": 0.47}
{"target gene": "pod1", "dsRNA": "DRSC18362", "replicate 1, z-score of dpERK with insulin": -0.09, "replicate 2, z-score of dpERK with insulin": -0.33}
{"target gene": "CG3097", "dsRNA": "DRSC18275", "replicate 1, z-score of dpERK with insulin": -0.16, "replicate 2, z-score of dpERK with insulin": -0.24}
{"target gene": "Acsx3", "dsRNA": "DRSC14309", "replicate 1, z-score of dpERK with insulin": 0.5, "replicate 2, z-score of dpERK with insulin": 0.03}
{"target gene": "Upf2", "dsRNA": "DRSC18218", "replicate 1, z-score of dpERK with insulin": -1.67, "replicate 2, z-score of dpERK with insulin": -0.42}
{"target gene": "p-cup", "dsRNA": "DRSC19513", "replicate 1, z-score of dpERK with insulin": 0.49, "replicate 2, z-score of dpERK with insulin": 0.36}
{"target gene": "CG13380 + CG4174", "dsRNA": "DRSC09988", "replicate 1, z-score of dpERK with insulin": 0.19, "replicate 2, z-score of dpERK with insulin": 0.09}
{"target gene": "CG13380 + CG4174", "dsRNA": "DRSC10406", "replicate 1, z-score of dpERK with insulin": -0.16, "replicate 2, z-score of dpERK with insulin": -0.08}
{"target gene": "CG31743 + CG34313", "dsRNA": "DRSC02781", "replicate 1, z-score of dpERK with insulin": -1.47, "replicate 2, z-score of dpERK with insulin": 1.27}
{"target gene": "CG31743 + CG34313", "dsRNA": "DRSC02782", "replicate 1, z-score of dpERK with insulin": -0.08, "replicate 2, z-score of dpERK with insulin": 0.39}
{"target gene": "spin", "dsRNA": "DRSC07176", "replicate 1, z-score of dpERK with insulin": -0.03, "replicate 2, z-score of dpERK with insulin": 0.46}
{"target gene": "spin", "dsRNA": "DRSC22271", "replicate 1, z-score of dpERK with insulin": 4.61, "replicate 2, z-score of dpERK with insulin": -3.77}
{"target gene": "CG30389", "dsRNA": "DRSC04077", "replicate 1, z-score of dpERK with insulin": -1.45, "replicate 2, z-score of dpERK with insulin": -0.45}
{"target gene": "CG30389", "dsRNA": "DRSC04452", "replicate 1, z-score of dpERK with insulin": 0.63, "replicate 2, z-score of dpERK with insulin": 1.04}
{"target gene": "CG14752", "dsRNA": "DRSC06488", "replicate 1, z-score of dpERK with insulin": 0.7, "replicate 2, z-score of dpERK with insulin": 0.02}
{"target gene": "sunz", "dsRNA": "DRSC12559", "replicate 1, z-score of dpERK with insulin": -0.8, "replicate 2, z-score of dpERK with insulin": 0.38}
{"target gene": "CG14079", "dsRNA": "DRSC10083", "replicate 1, z-score of dpERK with insulin": 0.73, "replicate 2, z-score of dpERK with insulin": -0.68}
{"target gene": "Adk2", "dsRNA": "DRSC09827", "replicate 1, z-score of dpERK with insulin": -0.3, "replicate 2, z-score of dpERK with insulin": 0.06}
